At least one compound was matched to its structure with a doubt left.
Tested on: CD40-stimulated CLL cells
Experiment: Cytotoxicity against CLL cells cultured on 3T3 or CD40L+ 3T40L fibroblasts
Format: cell-based, human
Settings: venetoclax 10 nM overnight, FIG. 14
Procedure: Primary CLL cells were obtained, cryopreserved and thawed as described in Example 3. 3T3 fibroblasts, either WT or transfected with human CD40L (3T40L), were grown in complete IMDM. Vγ9Vδ2-T cells were grown as described in Example 7.
Primary CLL cells were cultured for 72 hours on irradiated 3T3 or 3T40L fibroblasts to induce CD40 stimulation.
Cells were then harvested and cultured overnight either with venetoclax (10 nM) as described in Example 10, or with Vγ9Vδ2-T cells and V19S76K-5C8 as described in Example 12. Viability measurement and flow cytometry were performed as described in Example 10.

CC1(C)CCC(CN2CCN(c3ccc(C(=O)NS(=O)(=O)c4ccc(NCC5CCOCC5)c([N+](=O)[O-])c4)c(Oc4cnc5[nH]ccc5c4)c3)CC2)=C(c2ccc(Cl)cc2)C1 [Venetoclax, venetoclax] was tested, and the cell death (3T40L CD40-stimulated CLL cells) was “increased the resistance of CLL cells towards venetoclax” and the cell death (unstimulated (3T3) CLL cells) was “induced cell death in the majority of unstimulated CLL cells”.

— patent US20220135694A1, “NOVEL CD40-BINDING ANTIBODIES” (LAVA THERAPEUTICS B.V., priority 2019, published 2022)
